According to the supplement of paper PMC12009310:
Structures can show the parent of a compound that is named as a salt. ± gives the standard deviation of the averaged measurements. The list shows a part of the results. Baselines shift from plate to plate; read single values as rough.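 The cells are a mouse kidney inner medullary collecting duct line, silenced either for the ciliary gene Rpgrip1l or with a non-targeting control siRNA.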

Columns and labels:
[1] = test system: mIMCD3; assay: robust z score of cell number vs plate controls; higher = more cells (less cytotoxic); conditions: 10 µM, 48 h
[2] = test system: mIMCD3; assay: robust z score of cilia incidence (% cells with single cilium) vs plate controls; higher = more ciliated cells; conditions: 10 µM; 48 h; siRNA: siScr
[3] = test system: mIMCD3; assay: robust z score of cilia incidence (% cells with single cilium) vs plate controls; higher = more ciliated cells (rescue of cilia loss); conditions: 10 µM; 48 h; siRNA: siRpgrip1l

| SMILES | robust z score of cell number ([1]; siRNA: siRpgrip1l) | robust z score of cell number ([1]; siRNA: siScr) | robust z score of cilia incidence [2] | robust z score of cilia incidence [3] |
| --- | --- | --- | --- | --- |
| O=C(OCCN1CCOCC1)C1(c2ccccc2)CCCCC1 [PRE-084 hydrochloride] | -2.16 ± 9 | 9.72 ± 11 | 0.565 ± 0.38 | -12.8 ± 2.4 |
| COc1ccc([C@@H]2CNC(=O)C2)cc1OC1CCCC1 [(R)-(-)-Rolipram] | -37.1 ± 33 | 1.68 ± 1.4 | -0.532 ± 3.3 | -7.07 ± 2 |
| CCCOc1ccc(Br)cc1-c1cc(-c2ccc(Cl)cc2)[nH]c1-c1ccncc1 | -6.67 ± 4.2 | -1.22 ± 0.98 | 3.72 ± 3 | -10.1 ± 5 |
| CCOC(=O)c1ncn2c1CN(C)C(=O)c1cc(F)ccc1-2 [Flumazenil] | -20.6 ± 30 | -3.454 ± 0.024 | 0.138 ± 1.9 | -6.53 ± 0.33 |
| C=CCNC(=O)c1cc([N+](=O)[O-])cc2c(=O)[nH]c(Nc3ccc(Cl)c(Cl)c3)nc12 | -0.135 ± 2.1 | -2.29 ± 1.6 | -0.927 ± 0.31 | -8.73 ± 0.65 |
| CCn1c(=O)[nH]c2ccccc21 | -7.04 ± 1.9 | -2.8 ± 0.64 | -1.63 ± 1.6 | -15.5 ± 2.1 |
| S=C(S)N1CCCC1 [Pyrrolidinedithiocarbamate ammonium] | -13.9 ± 4.6 | -15 ± 2.7 | -5.47 ± 0.67 | -7.59 ± 0.46 |
| CCN1CCCC1CNC(=O)c1cc(S(=O)(=O)CC)c(N)cc1OC (centres undefined) [Amisulpride] | -0.312 ± 1.3 | -8.01 ± 12 | 0.384 ± 2.8 | -6.46 ± 3.5 |
| FC(F)(F)c1cc(COC2CCCNC2c2ccccc2)cc(C(F)(F)F)c1 [L-733,060 hydrochloride] | -57.2 ± 46 | -22.8 ± 5 | -23.6 ± 0.19 | -40.9 ± 9.6 |
| O=C(NCCCN1CCC2(CC1)OCc1ccccc12)[C@H]1CCCN1Cc1ccccc1 | -51.9 ± 65 | -3.64 ± 4.7 | -2.7 ± 1.6 | -17.7 ± 2.6 |
| CCCCNc1c(C(=O)OCC)c(C)nc2c1cnn2CC [Tracazolate hydrochloride] | -28.1 ± 27 | -2.77 ± 2.7 | -3.9 ± 2 | -249 ± 150 |

Some values from above.
Entry of `O=C(NCCCN1CCC2(CC1)OCc1ccccc12)[C@H]1CCCN1Cc1ccccc1` under robust z score of cell number ([1]; siRNA: siRpgrip1l): -51.9 ± 65
Entry of `CCN1CCCC1CNC(=O)c1cc(S(=O)(=O)CC)c(N)cc1OC` (centres undefined) [Amisulpride] under robust z score of cilia incidence [3]: -6.46 ± 3.5
